B1: ornithine decarboxylase (TbODC) (enzyme, UniProt P07805 1-423)
chain: MDIVVNDDLSCRFLEGFNTRDALCKKISMNTCDEGDPFFVADLGDIVRKHETWKKCLPRVTPFYAVKCNDDWRVLGTLAALGTGFDCASNTEIQRVRGIGVPPEKIIYANPCKQISHIRYARDSGVDVMTFDCVDELEKVAKTHPKAKMVLRISTDDSLARCRLSVKFGAKVEDCRFILEQAKKLNIDVTGVSFHVGSGSTDASTFAQAISDSRFVFDMGTELGFNMHILDIGGGFPGTRDAPLKFEEIAGVINNALEKHFPPDLKLTIVAEPGRYYVASAFTLAVNVIAKKVTPGVQTDVGAHAESNAQSFMYYVNDGVYGSFNCILYDHAVVRPLPQREPIPNEKLYPSSVWGPTCDGLDQIVERYYLPEMQVGEWLLFEDMGAYTVVGTSSFNGFQSPTIYYVVSGLPDHVVRELKSQKS
B2: kelch domain protein Tb927.1.820 (protein, UniProt Q4GZD6 1-426)
chain: MMSNTTSSGKGPTTFMWNSVPPSGDMPLHGCCHSLANYKDEQLILFGGGALHIIFNDVYCFDLKTSTWSYKETTNSEIVAPRISHSAVVHEDKMYVYGGQDLYMPTRFADVLVLDLITFTWSLIQQQATPAPDGPGDRRLHTAHIYRNCMYVLMGEPCNISNSFWFLDLTTLEWHPVHSSGWFGKPILPLLGHSAQVEGDYLYVFGGYHADSARRNGSPVYNNSLFSYHFPSNTWREVVPSSGPRPSPRYASAMAVIRGRVFIYGGDVDGEVYFDDFWCIDTNIPSSAASQSSSSSSYTTSLVAAPPAASSRWIDITLSCGRGRPSARSGHASAVAQGCLFVVGGELPGDRDVVYYSNRTYRYPLGYLTRLSLVELSSLWLAKCNPANIWMLDTQIPRHVRQLLVRNLNAQDRESTDDMMPCTRVV

By UniProt entry, the sequences of proteins in these tests, tags left out. Where a name states a change or a piece, a line headed by the entry shows the natural chain unless it says otherwise.
UniProt Q382K3: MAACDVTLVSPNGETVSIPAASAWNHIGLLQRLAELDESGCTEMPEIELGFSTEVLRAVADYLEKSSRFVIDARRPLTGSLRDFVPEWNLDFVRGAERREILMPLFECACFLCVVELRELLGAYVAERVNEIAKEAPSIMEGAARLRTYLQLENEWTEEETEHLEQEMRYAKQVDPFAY
UniProt Q583Y7: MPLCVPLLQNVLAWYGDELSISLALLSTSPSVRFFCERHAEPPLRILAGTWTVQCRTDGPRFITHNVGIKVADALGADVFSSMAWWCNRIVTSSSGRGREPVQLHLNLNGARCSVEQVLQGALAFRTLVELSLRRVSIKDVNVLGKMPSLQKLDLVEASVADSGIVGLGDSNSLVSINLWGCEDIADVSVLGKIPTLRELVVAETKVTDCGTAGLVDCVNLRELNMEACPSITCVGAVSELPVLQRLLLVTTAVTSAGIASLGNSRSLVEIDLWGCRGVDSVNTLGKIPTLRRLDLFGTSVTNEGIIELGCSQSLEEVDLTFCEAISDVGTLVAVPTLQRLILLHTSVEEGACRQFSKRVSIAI
UniProt Q57VF8: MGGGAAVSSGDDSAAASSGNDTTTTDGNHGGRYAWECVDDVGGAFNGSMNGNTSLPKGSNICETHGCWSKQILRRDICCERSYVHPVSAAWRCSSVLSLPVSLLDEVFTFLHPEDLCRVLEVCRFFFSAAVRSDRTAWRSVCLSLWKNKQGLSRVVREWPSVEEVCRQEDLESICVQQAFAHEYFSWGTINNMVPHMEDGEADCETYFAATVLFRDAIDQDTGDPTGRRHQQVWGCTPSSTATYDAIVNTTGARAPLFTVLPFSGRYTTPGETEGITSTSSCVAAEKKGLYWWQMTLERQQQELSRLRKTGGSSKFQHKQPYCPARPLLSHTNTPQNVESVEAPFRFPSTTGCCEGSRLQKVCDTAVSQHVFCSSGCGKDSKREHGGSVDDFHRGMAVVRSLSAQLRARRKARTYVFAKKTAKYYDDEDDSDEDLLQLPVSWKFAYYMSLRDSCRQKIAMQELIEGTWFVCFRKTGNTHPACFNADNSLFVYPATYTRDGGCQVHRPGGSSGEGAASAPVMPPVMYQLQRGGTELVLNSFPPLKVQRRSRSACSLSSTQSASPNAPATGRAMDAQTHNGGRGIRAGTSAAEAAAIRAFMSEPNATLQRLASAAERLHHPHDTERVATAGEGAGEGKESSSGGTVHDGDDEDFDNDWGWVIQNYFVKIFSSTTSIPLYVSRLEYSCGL
UniProt Q57UR0: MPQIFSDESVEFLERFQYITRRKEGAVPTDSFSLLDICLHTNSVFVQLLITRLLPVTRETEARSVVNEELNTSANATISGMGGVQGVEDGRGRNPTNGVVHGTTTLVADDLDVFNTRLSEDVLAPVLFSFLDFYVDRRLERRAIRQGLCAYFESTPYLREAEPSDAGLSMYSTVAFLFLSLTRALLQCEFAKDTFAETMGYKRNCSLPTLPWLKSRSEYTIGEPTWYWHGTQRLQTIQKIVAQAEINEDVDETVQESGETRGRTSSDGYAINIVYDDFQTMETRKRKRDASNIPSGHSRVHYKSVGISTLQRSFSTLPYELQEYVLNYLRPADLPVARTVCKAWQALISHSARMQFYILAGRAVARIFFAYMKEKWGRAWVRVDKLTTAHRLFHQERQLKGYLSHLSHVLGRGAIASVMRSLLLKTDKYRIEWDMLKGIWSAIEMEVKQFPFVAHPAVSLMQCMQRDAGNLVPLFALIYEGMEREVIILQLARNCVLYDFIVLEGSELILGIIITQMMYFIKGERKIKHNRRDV
UniProt Q38CJ7: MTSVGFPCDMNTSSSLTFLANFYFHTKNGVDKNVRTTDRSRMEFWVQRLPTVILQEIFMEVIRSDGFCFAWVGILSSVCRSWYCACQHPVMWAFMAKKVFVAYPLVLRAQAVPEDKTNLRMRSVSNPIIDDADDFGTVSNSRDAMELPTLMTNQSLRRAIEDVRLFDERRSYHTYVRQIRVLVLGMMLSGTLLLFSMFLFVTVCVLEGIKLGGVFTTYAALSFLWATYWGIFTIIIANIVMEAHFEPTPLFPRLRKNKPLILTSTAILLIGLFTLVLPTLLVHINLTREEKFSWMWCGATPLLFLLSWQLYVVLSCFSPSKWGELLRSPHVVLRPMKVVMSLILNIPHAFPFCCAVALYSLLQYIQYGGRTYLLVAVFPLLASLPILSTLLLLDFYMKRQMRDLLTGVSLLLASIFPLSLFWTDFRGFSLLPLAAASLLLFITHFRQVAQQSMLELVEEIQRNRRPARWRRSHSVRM
UniProt Q38C61: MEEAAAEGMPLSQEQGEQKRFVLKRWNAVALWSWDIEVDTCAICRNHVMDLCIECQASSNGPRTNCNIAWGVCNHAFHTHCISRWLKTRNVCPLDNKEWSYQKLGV
UniProt Q385F6: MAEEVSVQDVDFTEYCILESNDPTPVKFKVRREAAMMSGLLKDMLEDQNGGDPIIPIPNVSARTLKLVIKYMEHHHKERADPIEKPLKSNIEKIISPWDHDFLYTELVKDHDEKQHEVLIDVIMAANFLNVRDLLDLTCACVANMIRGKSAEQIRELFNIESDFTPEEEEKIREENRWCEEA
UniProt Q387E2: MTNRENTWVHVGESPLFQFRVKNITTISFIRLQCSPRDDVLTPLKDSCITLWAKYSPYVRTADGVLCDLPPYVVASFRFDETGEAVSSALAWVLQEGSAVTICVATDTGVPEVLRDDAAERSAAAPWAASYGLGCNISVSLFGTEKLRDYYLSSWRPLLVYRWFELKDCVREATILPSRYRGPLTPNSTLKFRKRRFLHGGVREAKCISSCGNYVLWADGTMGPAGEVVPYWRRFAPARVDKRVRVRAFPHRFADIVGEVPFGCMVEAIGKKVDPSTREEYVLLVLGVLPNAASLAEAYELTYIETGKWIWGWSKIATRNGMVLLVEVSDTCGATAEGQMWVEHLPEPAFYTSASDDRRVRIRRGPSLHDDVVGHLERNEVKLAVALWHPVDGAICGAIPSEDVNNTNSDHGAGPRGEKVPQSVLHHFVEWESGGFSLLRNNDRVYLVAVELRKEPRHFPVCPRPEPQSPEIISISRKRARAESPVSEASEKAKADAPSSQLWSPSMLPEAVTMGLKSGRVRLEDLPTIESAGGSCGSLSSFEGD
UniProt Q385Y9: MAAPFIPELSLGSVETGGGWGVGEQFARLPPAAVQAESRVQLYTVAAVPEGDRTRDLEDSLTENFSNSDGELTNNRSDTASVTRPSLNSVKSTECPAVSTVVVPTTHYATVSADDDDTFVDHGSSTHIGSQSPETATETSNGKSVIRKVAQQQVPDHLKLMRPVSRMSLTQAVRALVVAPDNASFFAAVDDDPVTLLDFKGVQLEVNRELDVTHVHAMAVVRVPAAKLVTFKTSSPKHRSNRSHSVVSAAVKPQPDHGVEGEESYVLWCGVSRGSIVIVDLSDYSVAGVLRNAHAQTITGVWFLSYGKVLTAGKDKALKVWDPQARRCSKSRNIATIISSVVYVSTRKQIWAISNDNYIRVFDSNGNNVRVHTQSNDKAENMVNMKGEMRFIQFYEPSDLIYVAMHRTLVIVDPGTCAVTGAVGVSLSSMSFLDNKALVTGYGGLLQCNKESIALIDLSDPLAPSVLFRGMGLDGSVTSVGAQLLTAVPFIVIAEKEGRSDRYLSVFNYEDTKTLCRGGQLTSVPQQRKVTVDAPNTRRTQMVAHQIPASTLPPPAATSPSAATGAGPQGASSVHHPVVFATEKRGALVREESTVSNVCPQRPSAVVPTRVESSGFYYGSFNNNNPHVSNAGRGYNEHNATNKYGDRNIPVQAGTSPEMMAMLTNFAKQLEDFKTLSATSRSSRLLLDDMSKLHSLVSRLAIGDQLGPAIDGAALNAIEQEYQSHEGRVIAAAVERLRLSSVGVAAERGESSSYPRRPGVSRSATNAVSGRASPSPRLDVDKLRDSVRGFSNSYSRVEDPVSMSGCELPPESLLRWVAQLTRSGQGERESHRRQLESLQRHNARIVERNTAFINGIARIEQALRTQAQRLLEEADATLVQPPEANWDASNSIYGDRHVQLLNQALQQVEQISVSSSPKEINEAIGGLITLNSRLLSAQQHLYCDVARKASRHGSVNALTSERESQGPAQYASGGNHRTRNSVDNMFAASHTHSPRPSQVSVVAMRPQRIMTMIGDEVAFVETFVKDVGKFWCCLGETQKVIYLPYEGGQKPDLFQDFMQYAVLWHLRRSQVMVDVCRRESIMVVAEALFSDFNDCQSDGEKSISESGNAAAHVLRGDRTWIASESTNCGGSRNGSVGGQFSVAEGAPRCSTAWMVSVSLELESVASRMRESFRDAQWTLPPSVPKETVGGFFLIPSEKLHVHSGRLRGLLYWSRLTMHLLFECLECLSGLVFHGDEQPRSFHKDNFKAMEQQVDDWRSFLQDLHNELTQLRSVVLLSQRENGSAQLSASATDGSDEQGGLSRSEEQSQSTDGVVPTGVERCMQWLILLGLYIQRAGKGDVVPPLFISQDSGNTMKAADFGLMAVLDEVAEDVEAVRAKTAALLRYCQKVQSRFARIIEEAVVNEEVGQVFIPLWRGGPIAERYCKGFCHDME
UniProt Q383D5: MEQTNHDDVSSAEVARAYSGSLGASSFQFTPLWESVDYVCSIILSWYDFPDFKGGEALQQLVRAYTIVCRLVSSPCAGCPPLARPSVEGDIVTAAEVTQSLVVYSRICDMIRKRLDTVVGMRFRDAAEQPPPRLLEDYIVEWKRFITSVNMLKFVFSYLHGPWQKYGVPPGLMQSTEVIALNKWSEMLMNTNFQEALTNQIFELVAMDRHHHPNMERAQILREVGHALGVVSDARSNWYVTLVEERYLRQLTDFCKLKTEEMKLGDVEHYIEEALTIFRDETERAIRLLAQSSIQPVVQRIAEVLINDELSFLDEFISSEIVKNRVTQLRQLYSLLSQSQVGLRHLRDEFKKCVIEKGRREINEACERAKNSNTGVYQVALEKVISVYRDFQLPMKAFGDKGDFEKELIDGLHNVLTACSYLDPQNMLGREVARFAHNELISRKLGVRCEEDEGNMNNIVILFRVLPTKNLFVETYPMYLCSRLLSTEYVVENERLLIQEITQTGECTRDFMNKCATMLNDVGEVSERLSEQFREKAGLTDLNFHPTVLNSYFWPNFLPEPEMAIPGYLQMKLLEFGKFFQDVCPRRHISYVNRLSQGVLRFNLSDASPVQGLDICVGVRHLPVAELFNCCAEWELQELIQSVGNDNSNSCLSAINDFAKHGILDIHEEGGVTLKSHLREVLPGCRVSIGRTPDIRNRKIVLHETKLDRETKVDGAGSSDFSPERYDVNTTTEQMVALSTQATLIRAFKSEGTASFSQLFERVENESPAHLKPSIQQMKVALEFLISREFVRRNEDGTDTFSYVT
UniProt Q587A2: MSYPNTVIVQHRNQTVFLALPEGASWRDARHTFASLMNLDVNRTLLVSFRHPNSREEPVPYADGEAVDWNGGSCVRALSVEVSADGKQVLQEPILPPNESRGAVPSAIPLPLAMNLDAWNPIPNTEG
UniProt Q383D3: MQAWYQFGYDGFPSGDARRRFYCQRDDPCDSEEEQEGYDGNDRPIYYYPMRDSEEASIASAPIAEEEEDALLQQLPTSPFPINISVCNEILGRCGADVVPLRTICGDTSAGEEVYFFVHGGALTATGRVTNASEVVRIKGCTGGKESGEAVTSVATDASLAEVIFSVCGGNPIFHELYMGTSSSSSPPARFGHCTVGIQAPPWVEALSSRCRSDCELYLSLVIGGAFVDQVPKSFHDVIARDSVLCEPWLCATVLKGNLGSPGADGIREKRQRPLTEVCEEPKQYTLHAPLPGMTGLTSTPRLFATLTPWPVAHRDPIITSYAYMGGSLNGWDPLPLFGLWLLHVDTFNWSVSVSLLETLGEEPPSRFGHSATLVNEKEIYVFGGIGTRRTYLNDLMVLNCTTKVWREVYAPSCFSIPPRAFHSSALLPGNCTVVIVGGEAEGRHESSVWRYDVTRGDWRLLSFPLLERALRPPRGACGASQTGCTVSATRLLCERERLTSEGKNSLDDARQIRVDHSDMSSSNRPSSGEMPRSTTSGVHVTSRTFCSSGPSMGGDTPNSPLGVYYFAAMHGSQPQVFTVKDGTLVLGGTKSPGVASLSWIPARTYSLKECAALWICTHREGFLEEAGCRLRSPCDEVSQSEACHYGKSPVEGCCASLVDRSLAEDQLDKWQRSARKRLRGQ
UniProt Q383X4: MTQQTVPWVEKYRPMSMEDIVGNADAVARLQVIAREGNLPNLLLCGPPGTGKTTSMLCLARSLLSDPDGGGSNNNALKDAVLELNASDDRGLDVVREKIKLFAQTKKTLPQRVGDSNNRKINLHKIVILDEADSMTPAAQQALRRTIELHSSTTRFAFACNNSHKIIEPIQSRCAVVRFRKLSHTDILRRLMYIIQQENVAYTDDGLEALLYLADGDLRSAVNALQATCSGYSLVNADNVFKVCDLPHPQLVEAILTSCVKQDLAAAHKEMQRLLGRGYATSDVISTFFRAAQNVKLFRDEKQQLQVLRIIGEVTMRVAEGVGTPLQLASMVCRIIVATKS

No constants are given. Whether binding was seen depends on the method and setting. In cells and extracts the contact can be indirect. A yes stands for co-enrichment or nearness to the bait. Other partners may have been found.

The first assay deals with TbCul-G (Trypanosoma brucei brucei (endogenous in procyclic Lister 427)) (UniProt Q583G1). Briefly: affinity purification with mass spectrometry; 3xHA-tagged cullin captured on anti-HA magnetic beads from cryomilled procyclic T. brucei cell powder; 20 mM HEPES pH 7.4, 250 mM NaCl, 1 mM Mg2Cl, 0.01 mM CaCl2, 0.1% Brij58; 2 h at 4 °C; LC-MSMS, LFQ against untagged parental cells.
For TbSkp-1.3 (from UniProt Q382K3), the binding result is recorded as “binds”. On the same count and under the same terms, to “flagellar member 2 (FLAM2) (from UniProt Q38AN4)” belongs “binds”; to “leucine-rich repeat protein (LRR) Tb927.4.3100 (from UniProt Q583Y7)”, “binds”. On the same count and under the same terms, in the case of “leucine-rich repeat protein (LRR) Tb927.6.1490 (from UniProt Q585R1)” it was “binds”; in that of “leucine-rich repeat protein (LRR) Tb927.10.10190 (from UniProt Q389V8)”, “binds”; in that of “protein phosphatase 1 Tb927.4.3620 (from UniProt Q585I8) (enzyme)”, “binds”. Same read-out and setting: in the case of “protein phosphatase 1 Tb927.4.3640 (from UniProt Q585I6) (enzyme)” it was “binds”; in that of “vacuolar protein sorting protein 13 (Vps13) (from UniProt Q57X24)”, “binds”.

The target in another assay is TbCul-A (Trypanosoma brucei brucei (endogenous in procyclic Lister 427)) (UniProt Q57YJ8). Described as above.
For “F-box protein Tb927.4.3000 (from UniProt Q583X7)”, the binding entry is listed as “binds”.

Regarding “F-box protein Tb927.5.700 (from UniProt Q57VF8)”, the binding entry is listed as “binds”. For the molecule “F-box protein Tb927.7.4300 (from UniProt Q57UR0)”, the binding result is on record as “binds”. Still for that read-out and setting: in the case of “F-box protein Tb927.8.1380 (from UniProt Q57VL7)” it was “binds”. The same measure, in the same setting: in the case of “F-box protein Tb927.10.410 (from UniProt Q38CJ7)” it was “binds”; in that of “F-box protein Tb927.10.12060 (from UniProt Q389D6)”, “binds”. Take TbRbx1 (from UniProt Q38C61): the binding entry is “binds”. Still for that read-out and setting: in the case of TbSkp-1 (from UniProt Q385F6) it was “binds”; in that of B1, “binds”.

Another assay addresses TbCul-D (Trypanosoma brucei brucei (endogenous in procyclic Lister 427)) (UniProt Q57XW2). The description is as above.
With “DCAF protein Tb927.8.840 (from UniProt Q57YE7)”, the binding entry was “binds”. Still for that read-out and setting: to “DCAF protein Tb927.11.3190 (from UniProt Q386J2)” belongs “binds”. As for DDB1 (from UniProt Q586I3), the binding result is reported as “binds”. Still for that read-out and setting: to Kap60 (from UniProt Q583S0) belongs “binds”. Still for that read-out and setting: to NOP60 (from UniProt Q387E2) belongs “binds”; to Tb927.11.4280 (from UniProt Q385Y9), “binds”; to TbRbx1 (from UniProt Q38C61), “binds”. The same measure, in the same setting: in the case of “nucleolar RNA-binding protein Tb927.8.750 (from UniProt Q57YF6)” it was “binds”.

Another assay has as its target TbCul-E (Trypanosoma brucei brucei (endogenous in procyclic Lister 427)) (UniProt Q383D5). The assay is described as above.
In the case of Tb927.6.4360 (from UniProt Q587A2), the binding entry was “binds”. Same read-out and setting: to TbRbx1 (from UniProt Q38C61) belongs “binds”; to “kelch domain protein Tb927.5.1980 (from UniProt Q57ZR7)”, “binds”; to “kelch domain protein Tb927.8.6140 (from UniProt Q57YL5)”, “binds”.

Consider “kelch domain protein Tb927.11.11450 (from UniProt Q383D3)”, for which the binding result is reported as “binds”. On the same count and under the same terms, in the case of “replication factor C subunit Tb927.11.9550 (from UniProt Q383X4)” it was “binds”. Turning to “vacuolar protein sorting protein 13 (Vps13) (from UniProt Q57X24)”, the binding entry was “binds”. On the same count and under the same terms, to B2 belongs “binds”.

The values above are taken from PMC12816148.
